Experimental data: patent US11572384B2 (FORSCHUNGSVERBUND BERLIN E.V., priority 2016, dated 2023)

Experiment: general procedure: Fmoc solid-phase peptide synthesis; Fmoc-L-Glu(tBu)-Wang resin (subst: 0.58 mmol/g); HOBt/HBTU/DIPEA
Conditions: whole synthesis, scale 0.1 mmol

CF-Tub-Tag
isolated mass: 16 mg
isolated yield: 8%
